These are yes or no findings as the source states them, for the method shown. Binding seen in cells or lysates may run through a third protein. Some entries that bind do so weakly or less than the wild type.
Molecular target: T1, checkpoint kinase 1 (human (endogenous in HEK 293T)) (UniProt O14757)
T1 sequence: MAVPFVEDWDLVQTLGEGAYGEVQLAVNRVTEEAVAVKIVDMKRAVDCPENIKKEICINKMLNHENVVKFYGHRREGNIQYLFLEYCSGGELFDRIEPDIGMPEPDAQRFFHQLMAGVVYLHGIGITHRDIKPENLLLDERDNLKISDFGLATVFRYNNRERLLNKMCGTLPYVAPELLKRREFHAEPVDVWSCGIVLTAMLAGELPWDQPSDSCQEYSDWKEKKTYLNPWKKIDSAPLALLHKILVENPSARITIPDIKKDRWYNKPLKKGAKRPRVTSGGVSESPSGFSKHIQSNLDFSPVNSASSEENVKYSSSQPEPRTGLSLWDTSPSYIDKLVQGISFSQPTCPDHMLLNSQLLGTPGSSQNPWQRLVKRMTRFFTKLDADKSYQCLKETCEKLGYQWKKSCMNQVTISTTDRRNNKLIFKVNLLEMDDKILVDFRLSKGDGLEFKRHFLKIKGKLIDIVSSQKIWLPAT
Test: co-IP; endogenous proteins from 293T cell lysate (3 mg, pre-cleared); immunoprecipitated with antibodies against CHK1 or NEK9 or mouse IgG on protein G beads, 4 h at 4°C; 0.375% CHAPS lysis buffer (10% glycerol, 150 mM NaCl, 50 mM Tris pH 7.5, 0.5 mM DTT), five washes; immunoblot

B1: NIMA (never in mitosis gene A)-related kinase 9 (protein, UniProt Q8TD19 1-979)
chain: MSVLGEYERHCDSINSDFGSESGGCGDSSPGPSASQGPRAGGGAAEQEELHYIPIRVLGRGAFGEATLYRRTEDDSLVVWKEVDLTRLSEKERRDALNEIVILALLQHDNIIAYYNHFMDNTTLLIELEYCNGGNLYDKILRQKDKLFEEEMVVWYLFQIVSAVSCIHKAGILHRDIKTLNIFLTKANLIKLGDYGLAKKLNSEYSMAETLVGTPYYMSPELCQGVKYNFKSDIWAVGCVIFELLTLKRTFDATNPLNLCVKIVQGIRAMEVDSSQYSLELIQMVHSCLDQDPEQRPTADELLDRPLLRKRRREMEEKVTLLNAPTKRPRSSTVTEAPIAVVTSRTSEVYVWGGGKSTPQKLDVIKSGCSARQVCAGNTHFAVVTVEKELYTWVNMQGGTKLHGQLGHGDKASYRQPKHVEKLQGKAIRQVSCGDDFTVCVTDEGQLYAFGSDYYGCMGVDKVAGPEVLEPMQLNFFLSNPVEQVSCGDNHVVVLTRNKEVYSWGCGEYGRLGLDSEEDYYTPQKVDVPKALIIVAVQCGCDGTFLLTQSGKVLACGLNEFNKLGLNQCMSGIINHEAYHEVPYTTSFTLAKQLSFYKIRTIAPGKTHTAAIDERGRLLTFGCNKCGQLGVGNYKKRLGINLLGGPLGGKQVIRVSCGDEFTIAATDDNHIFAWGNGGNGRLAMTPTERPHGSDICTSWPRPIFGSLHHVPDLSCRGWHTILIVEKVLNSKTIRSNSSGLSIGTVFQSSSPGGGGGGGGGEEEDSQQESETPDPSGGFRGTMEADRGMEGLISPTEAMGNSNGASSSCPGWLRKELENAEFIPMPDSPSPLSAAFSESEKDTLPYEELQGLKVASEAPLEHKPQVEASSPRLNPAVTCAGKGTPLTPPACACSSLQVEVERLQGLVLKCLAEQQKLQQENLQIFTQLQKLNKKLEGGQQVGMHSKGTQTAKEEMEMDPKPDLDSDSWCLLGTDSCRPSL
In the case of B1, the binding is reported as “binds”.
